# Measured values: US7947715B2, “Isoxazoline compound and pesticide” (Nissan Chemical Industries, Ltd., priority 2006, dated 2011)
# Some entries share one result that the patent states for a list of compounds. For at least one compound, name, drawing or mass did not settle the structure.
# System: cabbage moth (Plutella xylostella)
# Assay: Insecticidal test against cabbage moth (leaf dip)
# Assay type: in vivo
# Details: second instar larva, after 6 days
SMILES,insecticidal rate (rate of dead insects) (10 ppm (**)) [%],insecticidal rate (rate of dead insects) (100 ppm (*)) [%],also measured
CC(NC(=O)c1c(F)cc(F)cc1F)c1ccc(C2=NOC(c3cc(Cl)cc(Cl)c3)(C(F)(F)F)C2)cc1 (stereo not drawn) [2-290],≥ 80,–,–
CC(NC(=O)c1c(F)cc(F)cc1F)c1ccc(C2=NOC(c3cc(C(F)(F)F)cc(C(F)(F)F)c3)(C(F)(F)F)C2)cc1 (stereo not drawn) [2-291],≥ 80,–,–
CC(NC(=O)c1c(F)cc(F)cc1F)c1ccc(C2=NOC(c3cc(Cl)c(Cl)c(Cl)c3)(C(F)(F)F)C2)cc1 (stereo not drawn) [2-292],≥ 80,–,–
CC(NC(=O)c1c(F)c(F)c(F)c(F)c1F)c1ccc(C2=NOC(c3cc(Cl)c(Cl)c(Cl)c3)(C(F)(F)F)C2)cc1 (stereo not drawn) [2-293],–,–,insecticidal rate (rate of dead insects) (500 ppm): ≥ 80%
CC(NC(=O)c1ccc(Br)o1)c1ccc(C2=NOC(c3cc(Cl)cc(Cl)c3)(C(F)(F)F)C2)cc1 (stereo not drawn) [2-294],–,–,insecticidal rate (rate of dead insects) (500 ppm): ≥ 80%
O=C(NCc1ccc(C2=NOC(c3cc(Cl)cc(Cl)c3)(C(F)(F)F)C2)cc1Cl)c1cccs1 (stereo not drawn) [2-295],–,≥ 80,–
O=C(NCc1ccc(C2=NOC(c3cc(Cl)c(Cl)c(Cl)c3)(C(F)(F)F)C2)cc1Cl)c1sccc1Cl (stereo not drawn) [2-296],–,≥ 80,–
CC(NC(=O)c1sccc1Cl)c1ccc(C2=NOC(c3cc(Cl)cc(Cl)c3)(C(F)(F)F)C2)cc1 (stereo not drawn) [2-297],–,–,insecticidal rate (rate of dead insects) (500 ppm): ≥ 80%
Cn1ncc(C(=O)NCc2ccc(C3=NOC(c4cc(Cl)c(Cl)c(Cl)c4)(C(F)(F)F)C3)cc2Cl)c1Cl (stereo not drawn) [2-298],≥ 80,–,–
CC(NC(=O)c1cnn(C)c1Cl)c1ccc(C2=NOC(c3cc(Cl)cc(Cl)c3)(C(F)(F)F)C2)cc1 (stereo not drawn) [2-299],–,–,insecticidal rate (rate of dead insects) (500 ppm): ≥ 80%
Cn1nc(Cl)c(C(=O)NCc2ccc(C3=NOC(c4cc(Cl)c(Cl)c(Cl)c4)(C(F)(F)F)C3)cc2Cl)c1Cl (stereo not drawn) [2-300],–,–,insecticidal rate (rate of dead insects) (500 ppm): ≥ 80%
Cn1nc(Cl)cc1C(=O)NCc1ccc(C2=NOC(c3cc(Cl)c(Cl)c(Cl)c3)(C(F)(F)F)C2)cc1Cl (stereo not drawn) [2-301],≥ 80,–,–
CC(NC(=O)c1cc(Cl)nn1C)c1ccc(C2=NOC(c3cc(Cl)cc(Cl)c3)(C(F)(F)F)C2)cc1 (stereo not drawn) [2-302],–,–,insecticidal rate (rate of dead insects) (500 ppm): ≥ 80%
CC(NC(=O)c1cscn1)c1ccc(C2=NOC(c3cc(Cl)c(Cl)c(Cl)c3)(C(F)(F)F)C2)cc1 (stereo not drawn) [2-303],–,≥ 80,–
O=C(NCc1ccc(C2=NOC(c3cc(Cl)c(Cl)c(Cl)c3)(C(F)(F)F)C2)cc1Cl)n1ccnc1 (stereo not drawn) [2-304],–,–,insecticidal rate (rate of dead insects) (500 ppm): ≥ 80%
O=C(NCc1ccc(C2=NOC(c3cc(Cl)cc(Cl)c3)(C(F)(F)F)C2)cc1Cl)c1ccc(Cl)cn1 (stereo not drawn) [2-305],–,–,insecticidal rate (rate of dead insects) (500 ppm): ≥ 80%
O=C(NCc1ccc(C2=NOC(c3cc(Cl)c(Cl)c(Cl)c3)(C(F)(F)F)C2)cc1Cl)c1cccnc1Cl (stereo not drawn) [2-306],≥ 80,–,–
O=C(NCc1ccc(C2=NOC(c3cc(Cl)c(Cl)c(Cl)c3)(C(F)(F)F)C2)cc1Br)c1cccnc1Cl (stereo not drawn) [2-307],≥ 80,–,–
CC(NC(=O)c1cccnc1Cl)c1ccc(C2=NOC(c3cc(Cl)cc(Cl)c3)(C(F)(F)F)C2)cc1 (stereo not drawn) [2-308],–,–,insecticidal rate (rate of dead insects) (500 ppm): ≥ 80%
CC(NC(=O)c1cccnc1Cl)c1ccc(C2=NOC(c3cc(Cl)c(Cl)c(Cl)c3)(C(F)(F)F)C2)cc1 (stereo not drawn) [2-309],–,≥ 80,–
O=C(NCc1ccc(C2=NOC(c3cc(Cl)cc(Cl)c3)(C(F)(F)F)C2)cc1Cl)c1ccc(Cl)nc1 (stereo not drawn) [2-310],–,≥ 80,–

SMILES,insecticidal rate (rate of dead insects) (10 ppm (**)) [%],insecticidal rate (rate of dead insects) (100 ppm (*)) [%],also measured
O=C(NCc1ccc(C2=NOC(c3cc(Cl)c(Cl)c(Cl)c3)(C(F)(F)F)C2)cc1Cl)c1ccc(Cl)nc1 (stereo not drawn) [2-311],≥ 80,–,–
O=C(NCc1ccc(C2=NOC(c3cc(Cl)c(Cl)c(Cl)c3)(C(F)(F)F)C2)cc1Br)c1ccc(Cl)nc1 (stereo not drawn) [2-312],≥ 80,–,–
CC(NC(=O)c1ccc(Cl)nc1)c1ccc(C2=NOC(c3cc(Cl)c(Cl)c(Cl)c3)(C(F)(F)F)C2)cc1 (stereo not drawn) [2-313],≥ 80,–,–
CC(NC(=O)c1ncccn1)c1ccc(C2=NOC(c3cc(Cl)c(Cl)c(Cl)c3)(C(F)(F)F)C2)cc1 (stereo not drawn) [2-314],–,≥ 80,–
O=C(NCc1ccc(C2=NOC(c3cc(Cl)cc(Cl)c3)(C(F)(F)F)C2)cc1Cl)c1cnccn1 (stereo not drawn) [2-315],–,≥ 80,–
C#CCCC(=O)NC(C)c1ccc(C2=NOC(c3cc(C(F)(F)F)cc(C(F)(F)F)c3)(C(F)(F)F)C2)cc1 (stereo not drawn) [2-346],≥ 80,–,–
CC(NC(=O)C1(C(F)(F)F)CC1)c1ccc(C2=NOC(c3cc(Cl)cc(Cl)c3)(C(F)(F)F)C2)cc1 (stereo not drawn) [2-348],–,–,insecticidal rate (rate of dead insects) (500 ppm): ≥ 80%
CC(=O)NCc1ccc(C2=NOC(c3cc(C(F)(F)F)cc(C(F)(F)F)c3)(C(F)(F)F)C2)cc1F (stereo not drawn) [2-349],–,≥ 80,–
CC(=O)NCc1ccc(C2=NOC(c3cc(Cl)cc(C(F)(F)F)c3)(C(F)(F)F)C2)cc1Br (stereo not drawn) [2-354],≥ 80,–,–
CC(=O)NCc1ccc(C2=NOC(c3cc(C(F)(F)F)cc(C(F)(F)F)c3)(C(F)(F)F)C2)cc1[N+](=O)[O-] (stereo not drawn) [2-358],–,≥ 80,–
CC(=O)NC(C)c1ccc(C2=NOC(c3cc(Cl)cc(C(F)(F)F)c3)(C(F)(F)F)C2)cc1 (stereo not drawn) [2-359],≥ 80,–,–
CCC(=O)NCc1ccc(C2=NOC(c3cc(C(F)(F)F)cc(C(F)(F)F)c3)(C(F)(F)F)C2)cc1F (stereo not drawn) [2-362],–,≥ 80,–
CCC(=O)NCc1ccc(C2=NOC(c3cc(Cl)c(Cl)c(C(F)(F)F)c3)(C(F)(F)F)C2)cc1Cl (stereo not drawn) [2-368],≥ 80,–,–
CCC(=O)NCc1ccc(C2=NOC(c3cc(Cl)cc(C(F)(F)F)c3)(C(F)(F)F)C2)cc1Br (stereo not drawn) [2-370],≥ 80,–,–
CCC(=O)NCc1ccc(C2=NOC(c3cc(Cl)c(Cl)c(C(F)(F)F)c3)(C(F)(F)F)C2)cc1Br (stereo not drawn) [2-373],≥ 80,–,–
CCC(=O)NCc1ccc(C2=NOC(c3cc(C(F)(F)F)cc(C(F)(F)F)c3)(C(F)(F)F)C2)cc1I (stereo not drawn) [2-374],–,≥ 80,–
CCC(=O)NCc1ccc(C2=NOC(c3cc(C(F)(F)F)cc(C(F)(F)F)c3)(C(F)(F)F)C2)cc1[N+](=O)[O-] (stereo not drawn) [2-376],≥ 80,–,–
CCC(=O)NC(C)c1ccc(C2=NOC(c3cc(Cl)cc(C(F)(F)F)c3)(C(F)(F)F)C2)cc1 (stereo not drawn) [2-377],–,≥ 80,–
CCC(=O)N[C@@H](C)c1ccc(C2=NOC(c3cc(C(F)(F)F)cc(C(F)(F)F)c3)(C(F)(F)F)C2)cc1 (stereo partly drawn) [2-380],≥ 80,–,–
CCC(=O)NC(C#N)c1ccc(C2=NOC(c3cc(C(F)(F)F)cc(C(F)(F)F)c3)(C(F)(F)F)C2)cc1 (stereo not drawn) [2-382],≥ 80,–,–
CCC(=O)NC(C#N)c1ccc(C2=NOC(c3cc(Cl)c(Cl)c(C(F)(F)F)c3)(C(F)(F)F)C2)cc1 (stereo not drawn) [2-383],–,≥ 80,–

SMILES,insecticidal rate (rate of dead insects) (10 ppm (**)) [%],insecticidal rate (rate of dead insects) (100 ppm (*)) [%],also measured
CCC(=O)NC(C#N)c1ccc(C2=NOC(c3cc(C(F)(F)F)cc(C(F)(F)F)c3)(C(F)(F)F)C2)cc1Br (stereo not drawn) [2-384],≥ 80,–,–
CCC(=O)NC(C#N)c1ccc(C2=NOC(c3cc(Cl)cc(Cl)c3)(C(F)(F)F)C2)cc1C (stereo not drawn) [2-385],≥ 80,–,–
CCCC(=O)NCc1ccc(C2=NOC(c3cc(C(F)(F)F)cc(C(F)(F)F)c3)(C(F)(F)F)C2)cc1F (stereo not drawn) [2-386],–,≥ 80,–
CCCC(=O)NCc1ccc(C2=NOC(c3cc(Cl)c(Cl)c(C(F)(F)F)c3)(C(F)(F)F)C2)cc1Cl (stereo not drawn) [2-392],≥ 80,–,–
CCCC(=O)NCc1ccc(C2=NOC(c3cc(Cl)cc(C(F)(F)F)c3)(C(F)(F)F)C2)cc1Br (stereo not drawn) [2-394],≥ 80,–,–
CCCC(=O)NCc1ccc(C2=NOC(c3cc(C(F)(F)F)cc(C(F)(F)F)c3)(C(F)(F)F)C2)cc1I (stereo not drawn) [2-396],≥ 80,–,–
CCCC(=O)NCc1ccc(C2=NOC(c3cc(C(F)(F)F)cc(C(F)(F)F)c3)(C(F)(F)F)C2)cc1[N+](=O)[O-] (stereo not drawn) [2-398],≥ 80,–,–
CCCC(=O)NC(C)c1ccc(C2=NOC(c3cc(Cl)cc(C(F)(F)F)c3)(C(F)(F)F)C2)cc1 (stereo not drawn) [2-399],–,≥ 80,–
CCCC(=O)NC(C#N)c1ccc(C2=NOC(c3cc(C(F)(F)F)cc(C(F)(F)F)c3)(C(F)(F)F)C2)cc1 (stereo not drawn) [2-402],≥ 80,–,–
CC(C)C(=O)NCc1ccc(C2=NOC(c3cc(C(F)(F)F)cc(C(F)(F)F)c3)(C(F)(F)F)C2)cc1F (stereo not drawn) [2-403],–,≥ 80,–
CC(C)C(=O)NCc1ccc(C2=NOC(c3cc(Cl)c(Cl)c(C(F)(F)F)c3)(C(F)(F)F)C2)cc1Cl (stereo not drawn) [2-408],≥ 80,–,–
CC(C)C(=O)NCc1ccc(C2=NOC(c3cc(Cl)cc(C(F)(F)F)c3)(C(F)(F)F)C2)cc1Br (stereo not drawn) [2-409],≥ 80,–,–
CC(C)C(=O)NCc1ccc(C2=NOC(c3cc(Cl)c(Cl)c(C(F)(F)F)c3)(C(F)(F)F)C2)cc1Br (stereo not drawn) [2-412],≥ 80,–,–
CC(C)C(=O)NCc1ccc(C2=NOC(c3cc(C(F)(F)F)cc(C(F)(F)F)c3)(C(F)(F)F)C2)cc1I (stereo not drawn) [2-413],–,≥ 80,–
CC(C)C(=O)NCc1ccc(C2=NOC(c3cc(C(F)(F)F)cc(C(F)(F)F)c3)(C(F)(F)F)C2)cc1[N+](=O)[O-] (stereo not drawn) [2-415],≥ 80,–,–
CC(C)C(=O)NC(C)c1ccc(C2=NOC(c3cc(Cl)cc(C(F)(F)F)c3)(C(F)(F)F)C2)cc1 (stereo not drawn) [2-416],–,≥ 80,–
CC(C)C(=O)NC(C#N)c1ccc(C2=NOC(c3cc(C(F)(F)F)cc(C(F)(F)F)c3)(C(F)(F)F)C2)cc1 (stereo not drawn) [2-420],≥ 80,–,–
O=C(NCc1ccc(C2=NOC(c3cc(C(F)(F)F)cc(C(F)(F)F)c3)(C(F)(F)F)C2)cc1F)C1CC1 (stereo not drawn) [2-421],≥ 80,–,–
O=C(NCc1ccc(C2=NOC(c3cc(Cl)c(Cl)c(C(F)(F)F)c3)(C(F)(F)F)C2)cc1Cl)C1CC1 (stereo not drawn) [2-427],–,≥ 80,–
O=C(NCc1ccc(C2=NOC(c3cc(Cl)cc(C(F)(F)F)c3)(C(F)(F)F)C2)cc1Br)C1CC1 (stereo not drawn) [2-429],≥ 80,–,–
O=C(NCc1ccc(C2=NOC(c3cc(Cl)c(Cl)c(C(F)(F)F)c3)(C(F)(F)F)C2)cc1Br)C1CC1 (stereo not drawn) [2-432],≥ 80,–,–
